# Experimental data: PubChem BioAssay AID1259354 (Paczesny and Yang Labs, IUPUI and University of Michigan, 2018)
# By UniProt entry, the sequences of proteins in these tests, tags left out. Where a name states a change or a piece, a line headed by the entry shows the natural chain unless it says otherwise.
# UniProt Q01638: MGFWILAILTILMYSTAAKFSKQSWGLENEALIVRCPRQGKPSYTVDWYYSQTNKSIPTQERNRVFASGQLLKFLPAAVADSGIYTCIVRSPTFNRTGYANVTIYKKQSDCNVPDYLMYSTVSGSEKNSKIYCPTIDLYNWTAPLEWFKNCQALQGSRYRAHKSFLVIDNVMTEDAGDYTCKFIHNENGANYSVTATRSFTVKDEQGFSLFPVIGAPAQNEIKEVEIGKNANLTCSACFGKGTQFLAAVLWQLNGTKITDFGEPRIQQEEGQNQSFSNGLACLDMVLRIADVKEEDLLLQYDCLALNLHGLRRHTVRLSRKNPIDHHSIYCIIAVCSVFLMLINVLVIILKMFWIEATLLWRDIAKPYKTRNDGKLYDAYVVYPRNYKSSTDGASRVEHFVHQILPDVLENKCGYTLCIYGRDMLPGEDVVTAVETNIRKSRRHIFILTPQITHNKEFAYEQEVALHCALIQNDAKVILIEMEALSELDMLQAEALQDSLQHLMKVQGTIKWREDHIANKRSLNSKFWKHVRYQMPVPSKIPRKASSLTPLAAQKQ
# About 1,800 (2.3%) of roughly 78,000 compounds were called active. Inconclusive results, whose numbers are uncertain, are shown with a selection of clear calls. Rule as the data show it: active = inhibition above about 30%; inconclusive = mostly about 10% to 28%; inactive = weaker than that.
# Molecular target: Interleukin-1 receptor-like 1 (Homo sapiens) (UniProt Q01638)
# Assay: blocks human ST2 binding to IL-33, primary screen, biochemical, AlphaLISA (AID 1259354)
# Details: AlphaLISA ST2-Fc/biotin-IL-33 interaction, 1 h; at 17 µM, stronger effect = higher value
row,SMILES,inhibition
1,Cc1cc2nc(Cc3ccccc3Br)c(=O)[nH]c2cc1C,inconclusive: 13%
2,Cc1ccc(C2CC(=O)CC(c3ccc(C)cc3)S2)cc1 (stereo unspecified),inconclusive: 10%
3,O=C(Cc1ccc(N2CCC(N3C[C@H]4CC[C@@H]3C4)CC2)cc1)NCCc1cccc(F)c1,inconclusive: 13%
4,C[C@H](c1ccc(F)cc1)n1c(CCN)n[nH]c1=O,inconclusive: 16%
5,CSc1sc(SC)c(C=O)c1Br,inconclusive: 17%
6,CC(C)c1noc(-c2ccc(N3CCCCC3CC(N)=O)nc2)n1 (stereo unspecified),inactive
7,CCOc1cc(/C=C2/NC(=O)NC2=O)cc(Br)c1OCc1cccc(C(=O)O)c1,inactive
8,Cc1ccc(NC(=O)C2Cc3ccccc3C(=O)O2)cc1C (stereo unspecified),inconclusive: 13%
9,CC(C)(C)C1CCc2onc(C(=O)Nc3cccc(O)c3)c2C1 (stereo unspecified),inconclusive: 11%
10,CC1=C[C@@H](CNC(=O)c2ccccc2)[C@H](C(C)C)C[C@H]1CC(=O)NCc1ccccn1,inconclusive: 13%
11,CC(O)CNc1nc2c(c(=O)n(C)c(=O)n2C)n1Cc1cccc(F)c1 (stereo unspecified),inconclusive: 15%
12,CC(C)c1cc(N2CCOCC2)cc2c1[nH]c1ccccc12,inconclusive: 15%
13,Nc1nc2nonc2nc1Nc1ccccc1,inconclusive: 13%
14,CC1CCCN(c2c([N+](=O)[O-])c(=O)oc3ccccc23)C1 (stereo unspecified),inconclusive: 23%
15,CCOc1ccc(N=C2SC(C(=O)Nc3ccccc3F)CC(=O)N2C)cc1 (stereo unspecified),inactive
16,COc1ccccc1NS(=O)(=O)c1cccc(C(=O)Nc2ccccc2[N+](=O)[O-])c1,inconclusive: 19%
17,Cc1noc(NS(=O)(=O)c2ccc(NC(=O)/C=C/c3ccc(Cl)cc3)cc2)c1C,inconclusive: 10%
18,Cc1ccc(N2CC(NC(=O)c3ccccc3Br)CC2=O)cc1C (stereo unspecified),inactive
19,Cc1nonc1CN(C)Cc1nc(-c2cccc(C(F)(F)F)c2)oc1C,inconclusive: 10%
20,CCc1ccc(OCCCN2CCNCC2)cc1,inactive
21,Cc1ccc(C)c(OCC(=O)NCc2noc(Cc3cccs3)n2)c1C,inconclusive: 12%

row,SMILES,inhibition
1,Oc1ccc(C2C[C@@H]3CC[C@H]2C3)cc1O (stereo partly specified),inconclusive: 25%
2,Cc1nn(S(=O)(=O)c2ccccc2[N+](=O)[O-])c(C)c1Sc1ccc([N+](=O)[O-])cc1,active: 43%
3,c1ccc(Nc2c(-c3ccsc3)nc3sccn23)cc1,inconclusive: 18%
4,OCC1(O)CCN(c2nc3ccccc3s2)CC1,inactive
5,C[C@H]1[C@@H]2[C@@H](O)C([C@H](C)C(=O)N(C)CCC#N)CC[C@@]2(C)CC[C@@H]1NC(=O)Nc1cccc(F)c1 (stereo partly specified),inactive
6,CC(C)Cc1noc(C2CCCN(C(=O)c3cc(C(C)C)on3)C2)n1 (stereo unspecified),inactive
7,Cc1c(N=c2scc(-c3ccc(Cl)cc3)n2Cc2ccco2)c(=O)n(-c2ccccc2)n1C,inconclusive: 16%
8,CCCCOc1ccc(-c2noc(-c3ccc(OC)c(OC)c3)n2)cc1,inactive
9,CCc1ccccc1NC(=O)CCN1CCN(S(=O)(=O)N2CCCC2)CC1,inconclusive: 20%
10,Cc1ccccc1C1(O)CCN(C(=O)c2coc3c2C(=O)CCC3)C1 (stereo unspecified),inconclusive: 12%
11,Cc1ccc(S(=O)(=O)Nc2ccc3oc4c(c3c2)CCCC4)c(C)c1,inactive
12,O=C(Cn1c(=O)[nH]c2ccsc2c1=O)N1CCC(Cc2ccccc2)CC1,inactive
13,COCCN(Cc1[nH]c2ccccc2c1C)CC1CCCN(C2Cc3ccccc3C2)C1 (stereo unspecified),inconclusive: 10%
14,O=c1c(O)c(-c2cc(O)c(O)c(O)c2)oc2cc(O)cc(O)c12,inconclusive: 25%
15,CCCS(=O)(=O)N1CCCC(C(=O)NCCCN2CCOCC2)C1 (stereo unspecified),inconclusive: 17%
16,O=C(NC1CCCCC1)c1ccc2nc3ccc(Cl)cc3c(=O)n2c1,inactive
17,COc1ccc(-c2nccn2CCc2nc(C)c(C)s2)cc1O,inactive
18,COc1ccc(N(C)C(=O)c2cc3cc4ccc(OC)cc4nc3o2)c(OC)c1,inconclusive: 19%
19,COc1cccc(-c2cn3c4c(=O)n(C)c(=O)n(C)c4nc3n2-c2ccc(C)cc2)c1,inactive
20,Nc1ccc2oc(-c3ccc(I)cc3)nc2c1,inconclusive: 18%
21,O=S(=O)(Nc1ccc(F)cc1)c1cccc2cccnc12,inconclusive: 15%

# Among those listed so far, these contain a thiophene ring, fused or not:
row,SMILES,inhibition
5,CSc1sc(SC)c(C=O)c1Br,inconclusive: 17%
21,Cc1ccc(C)c(OCC(=O)NCc2noc(Cc3cccs3)n2)c1C,inconclusive: 12%
3,c1ccc(Nc2c(-c3ccsc3)nc3sccn23)cc1,inconclusive: 18%
12,O=C(Cn1c(=O)[nH]c2ccsc2c1=O)N1CCC(Cc2ccccc2)CC1,inactive

# (next part)

row,SMILES,inhibition
1,CC(C)c1ccc(CNC(=O)CCCc2nc3cccnc3n2Cc2ccccc2)cc1,inactive
2,O=C1C(=O)N(c2ccccc2)C(c2ccc3c(c2)OCO3)C1=C(O)c1ccccc1 (stereo unspecified),inconclusive: 18%
3,CCOC(=O)C(C)Sc1nc2c(c(=O)n1-c1ccc(Br)cc1)SCC2 (stereo unspecified),inconclusive: 20%
4,O=C1c2cccc([N+](=O)[O-])c2C(=O)N1c1cccc(Cl)c1Cl,inconclusive: 13%
5,CN(C)c1ncccc1CNS(=O)(=O)c1cccc(F)c1,inactive
6,Cc1ccc(-c2nc(CNC(=O)c3scnc3C)[nH]c2-c2ccccn2)cc1,inconclusive: 16%
7,CCOC(=O)c1sc2nc(C)nc(Nc3ccc(OC)c(OC)c3)c2c1C,inconclusive: 15%
8,Cc1cc(C)cc(-n2nc3c(c2NC(=O)c2cccs2)CSC3)c1,inactive
9,Cc1cccc(-n2ncc3c(N4CCN(c5ccccc5F)CC4)ncnc32)c1,inactive
10,CCOC(=O)CNC(=O)c1sc2nc(C)nc(N3CCOCC3)c2c1C,inconclusive: 10%
11,COc1cccc(CN2C(=O)CCC2(C)C(=O)NC2CCCCCC2)c1 (stereo unspecified),inconclusive: 26%
12,CC(=O)Nc1ccc(-c2cn(C(C)Cc3cnccn3)nn2)cc1 (stereo unspecified),inactive
13,NC(CC(O)c1ccc([N+](=O)[O-])cc1)C(Cl)(Cl)Cl (stereo unspecified),inactive
14,O=C(C1=Cc2ccccc2OC=C1)N1CCOC(C(F)(F)F)C1 (stereo unspecified),inconclusive: 22%
15,N#CCn1cnc2c(cnn2-c2ccc(Cl)cc2)c1=O,inconclusive: 14%
16,Cc1ccc(CN2C[C@H](O)C[C@H]2c2nc(-c3ccccc3)no2)cc1,inconclusive: 20%
17,CSc1ccc(C2Nc3cccc4cccc(c34)N2)cc1,active: 31%
18,Cc1ccc(S(=O)(=O)Nc2ccc3n(c2=O)C[C@H]2C[C@@H]3CN(C(=O)c3cccc(C(=O)O)c3)C2)cc1,inactive
19,O=[N+]([O-])c1cccc2c1OC1(N3CCOCC3)CCCCC1=C2 (stereo unspecified),inconclusive: 20%
